According to paper PMC5454392, “Selective BET bromodomain inhibition as an antifungal therapeutic strategy” (Nature Communications, 2017):

Test system: C. albicans
Assay: C. albicans growth assay in liquid media
Assay type: cell-based
Protocol: Growth on liquid media. C. albicans strains were grown at 30 °C in SC medium to an OD600 of 0.5–0.8. For the evaluation of growth defects related to Bdf1 mutations, log-phase growing cells were counted using a Neubauer chamber and diluted in liquid media to a final concentration of 5,400 cells per ml per well in a sterile 96-well plate. Dox (50 μg ml^−1) or methionine (5 mM)/cysteine (0.25 mM) were added to the media if required. Plates were incubated at 30 °C and OD600 was measured using a Multiskan FC Microplate Photometer (Thermo Fisher). For the evaluation of chemical compounds, strains were grown in SC medium supplemented with 50 μg ml^−1 Dox or 5 mM methionine/0.25 mM cysteine 24 h before counting and then seeded in 96-well plates at the same concentration as mentioned above, with or without chemical compounds. Statistical tests were performed using two-sided Welch t-tests.

In the case of `CN1C(=O)c2ccccc2Sc2cc(NC(=O)C3CCCO3)ccc21` (centres unmarked) [Compound 3], the “cell shift of EC50 relative to the IC50 value determined by HTRF” value is reported as 20 fold and the “cell shift of EC50 relative to the Kd by ITC” value is reported as “sevenfold”.
